Our source for the cell viability values is the supplement of paper PMC9433722.

One assay has as its system Saos-2. In words: cell viability (CCK-8) relative to DMSO control (% of control); higher = less cytotoxic. As to conditions: 10 µM; 48 h.
A further assay deals with U2OS. The assay is described as above. The settings on record: 10 µM; 48 h.

Counter-ions that a name gives are not always drawn. This is one part of the list. Most values come without repeats; read them as rough.

As to `NCCNCCNCCN` [Trientine Dihydrochloride], the cell viability with Saos-2 came to 104; in the assay on U2OS, 81.9.

For the molecule `C[C@H](N[C@@H](CCc1ccccc1)C(=O)O)C(=O)N1CCC[C@H]1C(=O)O` [Enalaprilat Maleate], the cell viability in the assay on Saos-2 came to 67.5; in the assay on U2OS, 112.

With `NNC(=O)c1ccncc1` [Isoniazid], the cell viability with Saos-2 was 65.5; in the assay with U2OS, 99.5.

For the molecule `O=C(c1ccccc1)c1ccc2n1CCC2C(=O)O` (stereo unspecified) [Ketorolac Tromethamine], the cell viability in the assay on Saos-2 and with U2OS was 116 each time.

Regarding `Cc1cccn2c(=O)c(-c3nnn[nH]3)cnc12` [Pemirolast Potassium], the cell viability was 108 in the assay on Saos-2 and 114 with U2OS.

For the molecule `Nc1nc2ccc(OC(F)(F)F)cc2s1` [Riluzole·HCl], the cell viability stood at 60.3 in the assay with Saos-2 and 107 in the assay with U2OS.

For `CN1C(C(=O)Nc2ccccn2)=C(O)c2ccccc2S1(=O)=O` [Piroxicam], the figures for the cell viability in the assay with Saos-2 and with U2OS were 59.2 and 108, respectively.

Regarding `NC12CC3CC(CC(C3)C1)C2` [Amantadine·HCl], the cell viability with Saos-2 was determined as 61.7; with U2OS it was 116.

As to `OC(Cn1cncn1)(Cn1cncn1)c1ccc(F)cc1F` [Fluconazole], the cell viability in the assay with Saos-2 was found to be 69.5; in the assay on U2OS it was 113.

In the case of `COc1ccc(-c2ccc3cc(C(=O)O)ccc3c2)cc1C12CC3CC(CC(C3)C1)C2` [Adapalene], the results for the cell viability in the assay with Saos-2 and in the assay on U2OS were 35.8 and 116, respectively.

Turning to `CC(C)[N+]1(C)[C@@H]2CC[C@H]1C[C@@H](OC(=O)C(CO)c1ccccc1)C2` (stereo partly specified) [Ipratropium . bromide], the cell viability came to 61.2 in the assay on Saos-2 and 111 in the assay on U2OS.

On to `CN(Cc1ccc(C(C)(C)C)cc1)Cc1cccc2ccccc12` [Butenafine·HCl], for which the cell viability with Saos-2 was found to be 58.3; in the assay on U2OS it was 113.

Consider `C[C@@H](O)[C@H]1C(=O)N2C(C(=O)O)=C(SCCNC=N)C[C@H]12` [Imipenem], for which the cell viability came to 58.1 in the assay on Saos-2 and 124 in the assay with U2OS.

As to `Cc1c(OCC(F)(F)F)ccnc1C[S+]([O-])c1nc2ccccc2[nH]1` (stereo unspecified) [Lansoprazole], the cell viability with Saos-2 worked out at 119; with U2OS it was 100.

In the case of `CCOC(=O)c1ncn2c1CN(C)C(=O)c1cc(F)ccc1-2` [Flumazenil], the results for the cell viability in the assay on Saos-2 and in the assay on U2OS were 56.3 and 110, respectively.

For `CC(=O)[C@H]1CC[C@H]2[C@@H]3CCC4=CC(=O)CC[C@]4(C)[C@H]3CC[C@]12C` [Progesterone], the results for the cell viability in the assay on Saos-2 and in the assay on U2OS were 65.5 and 111, respectively.

As for `Cc1cccc(Nc2ccncc2S(=O)(=O)NC(=O)NC(C)C)c1` [Torsemide], the cell viability with Saos-2 was 105; in the assay with U2OS, 88.5.

Regarding `CC(=O)O[C@]1(C(C)=O)CC[C@H]2[C@@H]3C=C(C)C4=CC(=O)CC[C@]4(C)[C@H]3CC[C@@]21C` [Megestrol Acetate], the cell viability with Saos-2 was determined as 67.9; in the assay on U2OS, 106.

As to `Nc1nc(=O)n([C@@H]2CS[C@H](CO)O2)cc1F` [Emtricitabine], the figures for the cell viability in the assay with Saos-2 and in the assay on U2OS were 60.1 and 113, respectively.

For the molecule `CC[C@H]1OC(=O)[C@H](C)[C@@H](O[C@H]2C[C@@](C)(OC)[C@@H](O)[C@H](C)O2)[C@H](C)[C@@H](O[C@@H]2O[C@H](C)C[C@H](N(C)C)[C@H]2O)[C@](C)(O)C[C@@H](C)CN(C)[C@H](C)[C@@H](O)[C@]1(C)O` [Azithromycin], the cell viability with Saos-2 is 67.8; in the assay with U2OS it was 102.

Turning to `C[C@H](CS)C(=O)N1CCC[C@H]1C(=O)O` [Captopril], the cell viability in the assay on Saos-2 turned out to be 57.6; with U2OS, 105.

On to `N[C@@H](CC(=O)N1CCn2c(nnc2C(F)(F)F)C1)Cc1cc(F)c(F)cc1F` [Sitagliptin Phosphate], for which the cell viability in the assay on Saos-2 is 107; with U2OS, 105.

For the molecule `CC(=O)OC(C)C[N+](C)(C)C` (stereo unspecified) [Methacholine Chloride], the values for the cell viability with Saos-2 and in the assay on U2OS were 94.6 and 90.6, respectively.

For the molecule `CN(C)CCC[C@@]1(c2ccc(F)cc2)OCc2cc(C#N)ccc21` [Escitalopram oxalate], the cell viability with Saos-2 came out at 58.4; in the assay with U2OS, 112.

As to `C=C1/C(=C\C=C2/CCC[C@]3(C)[C@@H]([C@H](C)CCCC(C)(C)O)CC[C@@H]23)C[C@@H](O)C[C@@H]1O` [1α,25-Dihydroxyvitamin D3], the cell viability in the assay with Saos-2 stood at 68.7; in the assay on U2OS, 117.

`Cc1c(-c2ccccc2)oc2c(C(=O)OCCN3CCCCC3)cccc2c1=O` [Flavoxate·HCl]: the cell viability in the assay on Saos-2 amounted to 106; in the assay on U2OS it was 79.9.

Regarding `NCCc1ccc(O)c(O)c1` [Dopamine·HCl], the cell viability with Saos-2 worked out at 101; in the assay with U2OS it was 112.

In the case of `CN(C)C(=N)NC(=N)N` [Metformin], the results for the cell viability with Saos-2 and in the assay on U2OS were 54 and 110, respectively.

`CCCNC(=O)NS(=O)(=O)c1ccc(Cl)cc1` [Chlorpropamide]: the cell viability was found to be 96.1 with Saos-2 and 86.1 in the assay on U2OS.

In the case of `COC(=O)Nc1nc2cc(C(=O)c3ccccc3)ccc2[nH]1` [Mebendazole], the cell viability amounted to 31.9 with Saos-2 and 46.6 in the assay with U2OS.

For `CN(C)CC(c1ccc(O)cc1)C1(O)CCCCC1` (stereo unspecified) [Desvenlafaxine Succinate Hydrate], the cell viability in the assay on Saos-2 is 114; in the assay with U2OS, 105.

As to `C1N2CN3CN1CN(C2)C3` [Methenamine Hippurate], the cell viability amounted to 95.6 in the assay with Saos-2 and 105 with U2OS.

In the case of `C[C@H](CCC(=O)O)[C@H]1CC[C@H]2[C@@H]3[C@H](O)C[C@@H]4C[C@H](O)CC[C@]4(C)[C@H]3CC[C@]12C` [Chenodeoxycholic Acid], the results for the cell viability in the assay with Saos-2 and in the assay on U2OS were 102 and 51.8, respectively.
